# Experimental data published in patent US8143374B2, “Polypeptide derivatives of parathyroid hormone (PTH)” (The General Hospital Corporation, priority 2006, dated 2012).
# Sequences of proteins named here, by UniProt entry; tags and fusion partners are left off. A change or cut given only in a name is not applied to a line headed by its entry.
# UniProt Q03431: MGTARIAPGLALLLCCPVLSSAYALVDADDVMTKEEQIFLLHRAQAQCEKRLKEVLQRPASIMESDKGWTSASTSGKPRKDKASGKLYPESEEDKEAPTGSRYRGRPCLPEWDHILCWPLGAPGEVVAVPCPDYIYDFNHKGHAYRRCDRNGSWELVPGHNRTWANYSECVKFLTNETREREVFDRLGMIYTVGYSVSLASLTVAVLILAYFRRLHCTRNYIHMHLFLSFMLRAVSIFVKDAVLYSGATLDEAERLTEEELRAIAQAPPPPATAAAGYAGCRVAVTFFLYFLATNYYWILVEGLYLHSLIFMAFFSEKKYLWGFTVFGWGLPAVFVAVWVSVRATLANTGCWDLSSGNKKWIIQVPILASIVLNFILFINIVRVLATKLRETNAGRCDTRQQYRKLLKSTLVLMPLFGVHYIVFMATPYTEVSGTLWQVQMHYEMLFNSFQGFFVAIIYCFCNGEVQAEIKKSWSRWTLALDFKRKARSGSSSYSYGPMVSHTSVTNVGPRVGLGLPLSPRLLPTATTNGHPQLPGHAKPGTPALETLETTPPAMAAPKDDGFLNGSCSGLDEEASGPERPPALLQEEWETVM
# Not every detail of the peptide structures is certain; ends, links or a residue may be inferred. Where a SMILES comes first, the peptide text is derived from it. [ ]: non-standard residue; d: D form. ξ: configuration not given here. ξGly(4-Pip(1-amidino)) = N=C(N)N1CCC(C(N)C(=O)O)CC1
# Tests used:
# [1] = Circular dichroism spectroscopy, helical residues per peptide chain; assay type: physicochemical; conditions: hPTH(1-31)NH2 analogs; calculated from [θ]222
# Method: Circular Dichroism—CD spectra were obtained on a JASCO J-600 spectropolarimeter at 20° C. Four spectra were averaged and the data smoothed by the JASCO software. The instrument was calibrated with ammonium (+)-10-camphorsulfonate. Peptide concentrations were verified from the absorption at 280 nm, using an extinction coefficient of 5700 M^−1 for the single tryptophan. Data are expressed as the number of helical residues per peptide chain, as calculated from −[θ]222×30/28,000, where [θ]222 is the mean residue elipticity ([θ]) at 222 nm, as was described previously (Barbier, J. R., et al. (2005) J Biol Chem. 280:23771-23777).
# PTHR-delNt = molecular target: T1, PTHR-delNt (Homo sapiens, UniProt Q03431, DEL24-181); assay: Competition binding in COS-7 cell membranes with 125I-[Aib1,3,M]PTH(1-15)NH2 tracer; conditions: hPTH(1-31)NH2 analogs; COS-7 membranes cotransfected with negative-dominant Gαs
# T1 construct: expressed in transfected cells; host or cells: COS-7 cells, transient co-transfection; membranes prepared
# T1 sequence (Q03431 with tags, fused parts or gaps DEL24-181): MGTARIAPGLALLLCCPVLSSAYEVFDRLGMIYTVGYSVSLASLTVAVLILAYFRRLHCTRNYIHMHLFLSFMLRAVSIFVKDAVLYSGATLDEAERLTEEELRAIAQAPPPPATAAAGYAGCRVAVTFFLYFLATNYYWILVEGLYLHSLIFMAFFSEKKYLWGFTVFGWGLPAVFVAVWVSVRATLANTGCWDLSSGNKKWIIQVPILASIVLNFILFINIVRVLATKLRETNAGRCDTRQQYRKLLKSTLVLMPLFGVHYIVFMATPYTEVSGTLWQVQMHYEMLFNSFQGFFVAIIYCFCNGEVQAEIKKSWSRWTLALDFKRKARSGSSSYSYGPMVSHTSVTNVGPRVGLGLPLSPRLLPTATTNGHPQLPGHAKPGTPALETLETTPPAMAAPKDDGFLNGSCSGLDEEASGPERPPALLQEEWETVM
# Method: PTHR-delNt is a derivative of the human PTHR that is deleted for most (Ala^24-Arg^181) of the amino-terminal extracellular domain (Shimizu, M., et al. (2001) Endocrinology 142:3068-3074). This PTHR construct was expressed in COS-7 cells via transient DNA transfection. For cAMP assays, the cells were transfected in 24-well plates using 0.2 μg of plasmid DNA and 0.6 μl of Fugene-6 reagent (Roche Diagnostics, Indianapolis Ind.) per well, and assays were performed on the intact cells three to four days after transfection. For binding assays, cell membranes were prepared from transfected COS-7 cells. […]
# Receptor binding—Binding to the wild-type human PTHR in intact HKRK-B7 cells and ROS 17/2.8 cells was assessed using ^125I-PTH(1-34) as a tracer radioligand, as described (Shimizu, M., (2001) Endocrinology 142:3068-3074). […] The binding mixture was then removed by aspiration, the cells were rinsed three times with binding buffer, lysed in 1 M NaOH, and the entire lysate was counted for gamma-irradiation in a gamma counter. Binding to PTHR-delNt in COS-7 cell membranes was assessed in 96-well, vacuum filtration plates (Multiscreen-Durapore HV, […] membranes, Millipore Corp., Millford, Mass.) using ^125I-[Aib^1,3,M]PTH(1-15)NH2 as a tracer radioligand, as described (Dean, T., (2006) Mol Endocrinol 20:931-942). […]
# ROS 17/2.8 cells = molecular target: T2, ROS 17/2.8 cells (Rattus norvegicus, UniProt P25961); conditions: position-20 substitutions in PTH(1-31)NH2; cited from earlier work
# T2 construct: ROS 17/2.8 cells are rat osteosarcoma cells and express the endogenous PTHR; host or cells: ROS 17/2.8 cells
# T2 sequence (P25961 27-591): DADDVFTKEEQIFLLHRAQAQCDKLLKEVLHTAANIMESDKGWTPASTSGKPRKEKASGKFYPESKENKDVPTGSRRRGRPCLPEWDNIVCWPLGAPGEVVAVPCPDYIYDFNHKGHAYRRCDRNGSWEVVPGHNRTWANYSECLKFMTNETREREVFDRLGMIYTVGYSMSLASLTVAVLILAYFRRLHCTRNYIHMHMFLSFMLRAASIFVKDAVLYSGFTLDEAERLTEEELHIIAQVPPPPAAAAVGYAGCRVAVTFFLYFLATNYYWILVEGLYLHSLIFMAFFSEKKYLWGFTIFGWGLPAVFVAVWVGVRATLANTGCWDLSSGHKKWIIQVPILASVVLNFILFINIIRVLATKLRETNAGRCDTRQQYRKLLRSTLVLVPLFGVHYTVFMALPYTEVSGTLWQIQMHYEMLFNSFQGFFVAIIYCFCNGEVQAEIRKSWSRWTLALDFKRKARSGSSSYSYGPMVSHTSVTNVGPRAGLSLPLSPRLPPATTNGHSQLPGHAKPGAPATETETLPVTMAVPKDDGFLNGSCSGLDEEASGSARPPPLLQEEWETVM
structure (smiles),measurement,setting,value
CC[C@H](C)[C@H](NC(=O)[C@H](CCC(=O)O)NC(=O)[C@H](CO)NC(=O)[C@@H](NC(=O)[C@@H](N)CO)C(C)C)C(=O)N[C@@H](CCC(N)=O)C(=O)N[C@@H](CC(C)C)C(=O)N[C@@H](CCSC)C(=O)N[C@@H](Cc1c[nH]cn1)C(=O)N[C@@H](CC(N)=O)C(=O)N[C@@H](CC(C)C)C(=O)NCC(=O)N[C@@H](CCCCN)C(=O)N[C@@H](Cc1c[nH]cn1)C(=O)N[C@@H](CC(C)C)C(=O)N[C@@H](CC(N)=O)C(=O)N[C@@H](CO)C(=O)N[C@@H](CCSC)C(=O)N[C@@H](CCC(=O)O)C(=O)NC(C(=O)N[C@H](C(=O)N[C@@H](CCC(=O)O)C(=O)N[C@@H](Cc1c[nH]c2ccccc12)C(=O)N[C@@H](CC(C)C)C(=O)N[C@@H](CCCNC(=N)N)C(=O)N[C@@H](CCCCN)C(=O)N[C@@H](CCCCN)C(=O)N[C@@H](CC(C)C)C(=O)N[C@@H](CCC(N)=O)C(=O)N[C@@H](CC(=O)O)C(=O)N[C@H](C(N)=O)C(C)C)C(C)C)C1CCN(C(=N)N)CC1 (stereo partly drawn) [Arg^20→PipGly] (H-SVSEIQLMHNLGKHLNSME[ξGly(4-Pip(1-amidino))]VEWLRKKLQDV-NH2; N-terminus assumed),CD helical residues,[1],8
same,IC50,PTHR-delNt,6.61 µM
same,reduction of cAMP-stimulating potency,ROS 17/2.8 cells,5 fold
